Here are results for 1 substance from article PMC12523770.

Chains of the proteins cited; added tags and fusions are not shown.
UniProt P22366: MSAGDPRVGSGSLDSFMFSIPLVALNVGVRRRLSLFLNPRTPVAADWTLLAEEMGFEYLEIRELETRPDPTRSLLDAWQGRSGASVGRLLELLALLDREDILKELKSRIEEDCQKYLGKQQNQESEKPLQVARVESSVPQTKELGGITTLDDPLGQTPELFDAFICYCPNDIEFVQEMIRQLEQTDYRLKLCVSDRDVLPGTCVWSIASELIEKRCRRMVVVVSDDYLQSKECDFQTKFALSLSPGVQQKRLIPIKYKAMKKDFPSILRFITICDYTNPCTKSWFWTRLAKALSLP

No constants are given. Whether binding was seen depends on the method and setting. Binding seen in cells or lysates may run through a third protein.

Experiment [1] addresses MyD88 (myeloid differentiation primary response 88), endogenous in mouse bone marrow-derived macrophages (mouse (endogenous in BMDMs)) (UniProt P22366). The experiment is described as follows: cross-linking; TLR3-/- BMDMs stimulated with 1 µg/mL poly(I:C); cleared freeze-thaw lysate with 2 mM DSS, 2 h, room temperature; SDS-PAGE, anti-MyD88 blot.
Experiment [2] has the same target. The experiment is described as follows: cross-linking; TRIF-deficient BMDMs stimulated with 1 µg/mL poly(I:C), 0 and 2 h; cleared freeze-thaw lysate with 2 mM DSS, 2 h, room temperature; SDS-PAGE, anti-MyD88 blot.

Take “MyD88 (myeloid differentiation primary response 88), endogenous in mouse bone marrow-derived macrophages (from UniProt P22366 1-296)”: the figures for the binding result in experiment [1] and in experiment [2] were “no binding (condition: in TLR3-/- BMDMs)” and “no binding (condition: in TRIF-deficient BMDMs)”, respectively.
